# Laboratory results reported in the supplement of paper PMC12819154, “High-throughput peptide-centric local stability assay extends protein–ligand identification to membrane proteins, tissues and bacteria” (Nature Structural & Molecular Biology, 2025).
# By UniProt entry, the sequences of proteins in these tests, tags left out. Where a name states a change or a piece, a line headed by the entry shows the natural chain unless it says otherwise.
# UniProt Q61595: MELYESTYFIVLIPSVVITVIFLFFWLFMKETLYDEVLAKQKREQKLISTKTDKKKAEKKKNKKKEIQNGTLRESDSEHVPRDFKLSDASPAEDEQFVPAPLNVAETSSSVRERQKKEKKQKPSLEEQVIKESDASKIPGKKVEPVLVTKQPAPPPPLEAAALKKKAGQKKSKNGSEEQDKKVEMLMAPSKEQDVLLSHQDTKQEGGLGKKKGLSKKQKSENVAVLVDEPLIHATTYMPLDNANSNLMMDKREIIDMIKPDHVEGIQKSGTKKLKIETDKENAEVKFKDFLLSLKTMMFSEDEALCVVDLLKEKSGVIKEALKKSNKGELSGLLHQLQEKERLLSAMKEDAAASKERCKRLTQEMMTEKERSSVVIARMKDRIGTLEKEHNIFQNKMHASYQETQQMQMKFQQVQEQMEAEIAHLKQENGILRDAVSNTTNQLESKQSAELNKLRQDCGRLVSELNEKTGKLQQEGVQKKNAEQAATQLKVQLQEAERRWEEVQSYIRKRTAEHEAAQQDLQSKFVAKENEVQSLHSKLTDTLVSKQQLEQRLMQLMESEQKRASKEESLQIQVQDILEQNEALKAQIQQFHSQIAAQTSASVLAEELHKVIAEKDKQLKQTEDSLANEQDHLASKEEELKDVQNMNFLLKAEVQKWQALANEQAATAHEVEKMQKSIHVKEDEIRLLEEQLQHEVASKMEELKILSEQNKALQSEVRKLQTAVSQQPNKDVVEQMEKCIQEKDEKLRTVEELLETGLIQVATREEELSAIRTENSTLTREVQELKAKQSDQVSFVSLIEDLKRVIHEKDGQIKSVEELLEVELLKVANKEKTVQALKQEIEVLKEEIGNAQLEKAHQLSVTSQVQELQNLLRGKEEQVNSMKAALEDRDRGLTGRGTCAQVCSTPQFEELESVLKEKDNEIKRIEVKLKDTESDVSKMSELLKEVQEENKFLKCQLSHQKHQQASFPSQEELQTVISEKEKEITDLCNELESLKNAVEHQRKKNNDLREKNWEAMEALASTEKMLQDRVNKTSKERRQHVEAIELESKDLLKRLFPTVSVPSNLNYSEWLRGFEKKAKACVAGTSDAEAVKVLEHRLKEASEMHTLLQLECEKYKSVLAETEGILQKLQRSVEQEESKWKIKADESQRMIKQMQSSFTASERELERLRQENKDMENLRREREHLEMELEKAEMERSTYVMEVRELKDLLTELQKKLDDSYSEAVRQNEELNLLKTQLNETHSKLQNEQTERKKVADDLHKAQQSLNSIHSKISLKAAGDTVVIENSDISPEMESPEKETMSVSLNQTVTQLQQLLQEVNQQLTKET
# UniProt Q62165: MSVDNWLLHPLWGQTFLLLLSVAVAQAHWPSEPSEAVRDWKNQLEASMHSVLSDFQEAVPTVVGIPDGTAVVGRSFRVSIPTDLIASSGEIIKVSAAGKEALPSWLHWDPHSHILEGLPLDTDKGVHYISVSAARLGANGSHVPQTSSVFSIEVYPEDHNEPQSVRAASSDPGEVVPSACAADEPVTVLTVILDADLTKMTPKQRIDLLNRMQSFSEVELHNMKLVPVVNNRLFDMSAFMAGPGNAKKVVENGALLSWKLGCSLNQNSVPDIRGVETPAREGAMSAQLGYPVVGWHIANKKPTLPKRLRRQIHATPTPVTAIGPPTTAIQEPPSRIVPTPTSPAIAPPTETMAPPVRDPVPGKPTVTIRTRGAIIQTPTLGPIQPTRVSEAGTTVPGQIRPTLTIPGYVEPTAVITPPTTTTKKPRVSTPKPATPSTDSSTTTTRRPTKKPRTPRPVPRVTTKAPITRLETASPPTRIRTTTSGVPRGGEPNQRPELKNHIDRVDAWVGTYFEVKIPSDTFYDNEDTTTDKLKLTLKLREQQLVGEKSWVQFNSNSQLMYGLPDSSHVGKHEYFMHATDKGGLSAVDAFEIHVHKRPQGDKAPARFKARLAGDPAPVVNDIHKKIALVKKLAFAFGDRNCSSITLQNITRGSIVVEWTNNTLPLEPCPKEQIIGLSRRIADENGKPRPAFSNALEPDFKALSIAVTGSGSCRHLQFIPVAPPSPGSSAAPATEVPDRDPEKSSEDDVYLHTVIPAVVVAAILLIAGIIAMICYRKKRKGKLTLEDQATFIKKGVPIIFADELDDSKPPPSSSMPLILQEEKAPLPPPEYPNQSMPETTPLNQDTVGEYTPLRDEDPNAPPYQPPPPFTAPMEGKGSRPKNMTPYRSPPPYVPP
# UniProt Q61830: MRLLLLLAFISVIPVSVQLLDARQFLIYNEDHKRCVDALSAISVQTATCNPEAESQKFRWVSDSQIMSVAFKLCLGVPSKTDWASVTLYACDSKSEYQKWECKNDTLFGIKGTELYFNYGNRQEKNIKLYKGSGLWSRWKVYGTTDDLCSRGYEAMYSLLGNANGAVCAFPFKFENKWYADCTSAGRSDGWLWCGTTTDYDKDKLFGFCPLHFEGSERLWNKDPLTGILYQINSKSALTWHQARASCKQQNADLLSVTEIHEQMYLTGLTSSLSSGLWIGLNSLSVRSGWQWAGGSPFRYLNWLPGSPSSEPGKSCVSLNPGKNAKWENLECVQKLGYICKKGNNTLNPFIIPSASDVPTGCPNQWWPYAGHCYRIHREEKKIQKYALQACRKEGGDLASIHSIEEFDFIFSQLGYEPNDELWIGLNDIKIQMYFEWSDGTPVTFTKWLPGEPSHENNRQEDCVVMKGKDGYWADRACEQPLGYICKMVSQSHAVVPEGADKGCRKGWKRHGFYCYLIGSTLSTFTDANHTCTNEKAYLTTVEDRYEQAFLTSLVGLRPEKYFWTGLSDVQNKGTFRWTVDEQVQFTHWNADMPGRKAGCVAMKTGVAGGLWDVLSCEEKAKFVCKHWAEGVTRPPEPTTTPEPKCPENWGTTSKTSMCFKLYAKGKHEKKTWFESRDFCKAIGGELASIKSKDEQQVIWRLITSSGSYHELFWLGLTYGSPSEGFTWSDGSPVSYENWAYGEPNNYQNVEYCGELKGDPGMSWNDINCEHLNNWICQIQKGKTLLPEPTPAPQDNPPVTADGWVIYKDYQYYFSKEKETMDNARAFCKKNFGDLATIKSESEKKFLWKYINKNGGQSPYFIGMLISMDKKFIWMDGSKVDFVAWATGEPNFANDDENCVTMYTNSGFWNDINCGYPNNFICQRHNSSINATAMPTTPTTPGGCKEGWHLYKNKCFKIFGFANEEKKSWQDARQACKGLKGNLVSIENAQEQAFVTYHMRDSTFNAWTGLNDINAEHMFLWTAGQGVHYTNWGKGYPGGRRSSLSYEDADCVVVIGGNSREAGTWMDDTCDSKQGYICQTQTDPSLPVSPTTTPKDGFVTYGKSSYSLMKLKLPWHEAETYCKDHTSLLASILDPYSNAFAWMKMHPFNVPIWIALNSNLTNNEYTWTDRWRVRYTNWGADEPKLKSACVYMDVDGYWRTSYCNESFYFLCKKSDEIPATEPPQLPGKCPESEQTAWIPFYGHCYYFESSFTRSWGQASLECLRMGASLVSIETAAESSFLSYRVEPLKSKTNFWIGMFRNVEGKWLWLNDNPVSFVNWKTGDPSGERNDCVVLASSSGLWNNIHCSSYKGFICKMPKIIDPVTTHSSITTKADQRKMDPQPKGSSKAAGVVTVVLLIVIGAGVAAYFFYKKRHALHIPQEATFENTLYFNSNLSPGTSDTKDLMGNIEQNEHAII
# UniProt Q62419: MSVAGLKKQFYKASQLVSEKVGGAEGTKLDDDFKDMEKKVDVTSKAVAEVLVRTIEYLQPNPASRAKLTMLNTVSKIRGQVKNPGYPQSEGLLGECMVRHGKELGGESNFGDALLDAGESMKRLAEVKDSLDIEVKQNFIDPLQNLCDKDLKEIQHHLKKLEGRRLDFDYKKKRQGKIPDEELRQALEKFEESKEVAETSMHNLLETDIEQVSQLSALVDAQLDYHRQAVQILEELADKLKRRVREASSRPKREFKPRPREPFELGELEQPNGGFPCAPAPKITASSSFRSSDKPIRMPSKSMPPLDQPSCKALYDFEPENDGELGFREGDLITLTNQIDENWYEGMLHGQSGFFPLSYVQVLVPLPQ
# UniProt Q61733, whole entry: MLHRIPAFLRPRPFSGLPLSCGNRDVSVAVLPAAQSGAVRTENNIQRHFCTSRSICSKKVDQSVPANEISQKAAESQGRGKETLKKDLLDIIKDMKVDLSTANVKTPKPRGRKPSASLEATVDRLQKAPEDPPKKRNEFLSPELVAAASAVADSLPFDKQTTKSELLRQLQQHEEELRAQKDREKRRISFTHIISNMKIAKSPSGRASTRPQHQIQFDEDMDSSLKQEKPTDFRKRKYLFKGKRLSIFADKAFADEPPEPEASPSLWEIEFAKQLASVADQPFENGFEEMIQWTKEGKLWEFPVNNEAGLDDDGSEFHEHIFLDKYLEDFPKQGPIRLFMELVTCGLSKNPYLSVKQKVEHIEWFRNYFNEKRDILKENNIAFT
# UniProt Q640M1: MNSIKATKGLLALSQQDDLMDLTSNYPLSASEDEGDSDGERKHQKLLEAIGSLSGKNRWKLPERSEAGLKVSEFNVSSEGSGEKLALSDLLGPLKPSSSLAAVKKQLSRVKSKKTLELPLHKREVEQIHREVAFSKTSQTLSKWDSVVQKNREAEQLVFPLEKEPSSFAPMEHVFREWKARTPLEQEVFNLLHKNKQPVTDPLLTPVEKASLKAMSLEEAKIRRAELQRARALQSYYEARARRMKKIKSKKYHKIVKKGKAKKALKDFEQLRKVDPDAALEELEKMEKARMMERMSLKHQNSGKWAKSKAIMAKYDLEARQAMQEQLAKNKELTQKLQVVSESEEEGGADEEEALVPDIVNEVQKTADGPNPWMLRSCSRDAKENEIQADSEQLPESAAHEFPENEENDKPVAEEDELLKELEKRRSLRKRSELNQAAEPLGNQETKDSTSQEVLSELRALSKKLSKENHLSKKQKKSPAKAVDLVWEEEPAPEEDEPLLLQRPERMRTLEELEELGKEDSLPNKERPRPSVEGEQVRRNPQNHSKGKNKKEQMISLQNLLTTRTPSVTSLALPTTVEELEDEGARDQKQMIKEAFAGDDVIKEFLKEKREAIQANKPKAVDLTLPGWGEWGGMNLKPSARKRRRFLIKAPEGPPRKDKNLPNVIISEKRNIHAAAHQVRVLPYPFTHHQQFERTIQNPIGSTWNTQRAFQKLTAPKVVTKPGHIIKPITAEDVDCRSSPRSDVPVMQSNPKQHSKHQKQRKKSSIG
# UniProt Q689Z5: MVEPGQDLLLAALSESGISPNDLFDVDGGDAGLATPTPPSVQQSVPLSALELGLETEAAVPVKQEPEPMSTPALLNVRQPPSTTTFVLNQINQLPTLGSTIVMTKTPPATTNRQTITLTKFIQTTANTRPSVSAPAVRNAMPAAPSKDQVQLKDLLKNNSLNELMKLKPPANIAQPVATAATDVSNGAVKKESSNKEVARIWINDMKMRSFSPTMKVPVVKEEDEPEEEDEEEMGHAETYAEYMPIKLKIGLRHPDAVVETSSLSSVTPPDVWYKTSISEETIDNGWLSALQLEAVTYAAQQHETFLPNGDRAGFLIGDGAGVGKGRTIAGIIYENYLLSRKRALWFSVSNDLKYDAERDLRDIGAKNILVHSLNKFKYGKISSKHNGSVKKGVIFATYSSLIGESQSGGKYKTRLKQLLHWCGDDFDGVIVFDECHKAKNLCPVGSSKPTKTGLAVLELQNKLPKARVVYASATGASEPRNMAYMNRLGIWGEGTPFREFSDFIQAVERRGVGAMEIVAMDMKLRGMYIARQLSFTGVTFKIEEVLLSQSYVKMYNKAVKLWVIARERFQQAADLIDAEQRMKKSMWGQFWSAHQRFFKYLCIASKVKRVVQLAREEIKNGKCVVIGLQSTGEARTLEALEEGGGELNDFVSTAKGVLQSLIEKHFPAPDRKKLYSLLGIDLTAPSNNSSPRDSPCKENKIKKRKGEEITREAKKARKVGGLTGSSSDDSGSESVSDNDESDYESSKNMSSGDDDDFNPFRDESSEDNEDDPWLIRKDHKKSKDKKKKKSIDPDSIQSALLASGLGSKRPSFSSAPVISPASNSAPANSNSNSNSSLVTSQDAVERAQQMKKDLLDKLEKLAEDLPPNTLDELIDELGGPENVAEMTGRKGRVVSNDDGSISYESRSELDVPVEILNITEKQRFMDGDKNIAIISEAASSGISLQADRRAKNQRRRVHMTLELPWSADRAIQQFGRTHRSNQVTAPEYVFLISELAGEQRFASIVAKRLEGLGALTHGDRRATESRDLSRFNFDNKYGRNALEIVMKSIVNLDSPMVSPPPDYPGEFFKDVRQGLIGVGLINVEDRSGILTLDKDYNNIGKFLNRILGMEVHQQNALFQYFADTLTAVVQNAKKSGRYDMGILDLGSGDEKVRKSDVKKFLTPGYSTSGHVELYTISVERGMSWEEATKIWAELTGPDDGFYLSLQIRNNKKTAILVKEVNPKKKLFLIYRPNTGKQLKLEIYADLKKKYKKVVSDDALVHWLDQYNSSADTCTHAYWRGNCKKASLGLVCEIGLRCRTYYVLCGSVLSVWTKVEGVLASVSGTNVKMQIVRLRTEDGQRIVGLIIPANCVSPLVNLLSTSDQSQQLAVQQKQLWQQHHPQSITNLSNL
# The other results are listed elsewhere or left out. Small differences around the control level are noise.
# Compound: CN[C@@H]1C[C@H]2O[C@@](C)([C@@H]1OC)n1c3ccccc3c3c4c(c5c6ccccc6n2c5c31)C(=O)NC4 [staurosporine]
# Assay: log2 fold change of tryptic peptide abundance, ligand vs vehicle (limited proteolysis) (log2 ratio); higher = more trypsin-susceptible (destabilized)
# Details: ligand concentration: 20 uM; sample: mouse liver crude lysate; replicate design: treated separately
row,Target,log2 fold change
1,"UniProt Q66JZ4 (peptide sequence: VPPHPHPQSLSGLQMILSSDR, peptide start residue: 358)",0.426
2,"UniProt Q62318 (peptide sequence: VLVNDAQK, peptide start residue: 313)",-0.171
3,"UniProt Q62432 (peptide sequence: VLTQMGSPSVR, peptide start residue: 452)",0.547
4,"UniProt Q61592 (peptide sequence: MFSGTPVIR, peptide start residue: 297)",0.212
5,"UniProt Q68FE2 (peptide sequence: HRADVASALR, peptide start residue: 644)",0.444
6,"UniProt Q62010 (peptide sequence: ATAGISK, peptide start residue: 730)",0.252
7,"UniProt Q640N2 (peptide sequence: FQVTIFDLGGGKR, peptide start residue: 65)",-0.347
8,"UniProt Q61666 (peptide sequence: IHQSTYGK, peptide start residue: 374)",0.404
9,"UniProt Q61595 (peptide sequence: LLSAMKEDAAASK, peptide start residue: 343)",0.4
10,"UniProt Q61559 (peptide sequence: NLEWKEPPSMR, peptide start residue: 196)",-0.16
11,"UniProt Q61549 (peptide sequence: KTDLSSHSQTSGILLSSMPSTSK, peptide start residue: 907)",-0.446
12,"UniProt Q61333 (peptide sequence: LDAQPATAPEGR, peptide start residue: 236)",-0.237
13,"UniProt Q69ZF3 (peptide sequence: YYNYDSSSHPQSR, peptide start residue: 726)",-0.412
14,"UniProt Q61753 (peptide sequence: KVLISDSLDPCCRK, peptide start residue: 8)",-0.296
15,"UniProt Q69Z36 (peptide sequence: VVGLVVGPK, peptide start residue: 330)",-0.0188
16,"UniProt Q62165 (peptide sequence: MQSFSEVELHNMK, peptide start residue: 212)",0.432
17,"UniProt Q62425 (peptide sequence: KNNPEPWNK, peptide start residue: 48)",0.179
18,"UniProt Q61830 (peptide sequence: FIWMDGSK, peptide start residue: 872)",0.108
19,"UniProt Q61474 (peptide sequence: VCEIHFHEINNK, peptide start residue: 167)",-0.133
20,"UniProt Q62419 (peptide sequence: LDDDFKDMEK, peptide start residue: 29)",0.348

# Looked up above:
# log2 fold change with UniProt Q61595 (peptide sequence: LLSAMKEDAAASK, peptide start residue: 343) is entered as 0.4
# log2 fold change with UniProt Q68FE2 (peptide sequence: HRADVASALR, peptide start residue: 644) is entered as 0.444

# (cont.)

row,Target,log2 fold change
1,"UniProt Q61733 (peptide sequence: YLEDFPK, peptide start residue: 326)",0.203
2,"UniProt Q61398 (peptide sequence: YDSVSVFNGAVSDDSKR, peptide start residue: 214)",0.343
3,"UniProt Q64705 (peptide sequence: QQIEELKNENALLR, peptide start residue: 316)",0.24
4,"UniProt Q62087 (peptide sequence: IQDSLSDKPR, peptide start residue: 306)",-0.147
5,"UniProt Q640M1 (peptide sequence: RSELNQAAEPLGNQETK, peptide start residue: 431)",-0.509
6,"UniProt Q64505 (peptide sequence: AFIQNNLDSFK, peptide start residue: 200)",0.348
7,"UniProt Q66JV4 (peptide sequence: YPTDEDFR, peptide start residue: 673)",-0.493
8,"UniProt Q68FE8 (peptide sequence: SVNSDASDPGSVR, peptide start residue: 901)",0.366
9,"UniProt Q61908 (peptide sequence: SLVCSGFEKEEEEK, peptide start residue: 47)",-0.224
10,"UniProt Q69Z99 (peptide sequence: VLQDLVPDDR, peptide start residue: 369)",-0.142
11,"UniProt Q641K1 (peptide sequence: INTDSTESDTAR, peptide start residue: 28)",0.426
12,"UniProt Q64669 (peptide sequence: NFQYPSESSLAYKEGR, peptide start residue: 65)",0.511
13,"UniProt Q64373 (peptide sequence: EVIPMAAVK, peptide start residue: 79)",0.118
14,"UniProt Q61670 (peptide sequence: SLHQTTVIK, peptide start residue: 396)",0.0136
15,"UniProt Q689Z5 (peptide sequence: KDLLDKLEK, peptide start residue: 853)",0.539
16,"UniProt Q61702 (peptide sequence: HAVDTSVNGVSIK, peptide start residue: 39)",-0.708
17,"UniProt Q64267 (peptide sequence: LAARPYPAAAATGGVASVK, peptide start residue: 45)",-0.148
18,"UniProt Q62179 (peptide sequence: GYQALSDSSPGPR, peptide start residue: 772)",-0.147
19,"UniProt Q64437 (peptide sequence: IIGIDINKDKFQK, peptide start residue: 219)",-0.0155
